{"sequences": {"note": "Sequences of proteins named here, by UniProt entry; tags and fusion partners are left off.", "UniProt Q92830, whole entry, looked up": "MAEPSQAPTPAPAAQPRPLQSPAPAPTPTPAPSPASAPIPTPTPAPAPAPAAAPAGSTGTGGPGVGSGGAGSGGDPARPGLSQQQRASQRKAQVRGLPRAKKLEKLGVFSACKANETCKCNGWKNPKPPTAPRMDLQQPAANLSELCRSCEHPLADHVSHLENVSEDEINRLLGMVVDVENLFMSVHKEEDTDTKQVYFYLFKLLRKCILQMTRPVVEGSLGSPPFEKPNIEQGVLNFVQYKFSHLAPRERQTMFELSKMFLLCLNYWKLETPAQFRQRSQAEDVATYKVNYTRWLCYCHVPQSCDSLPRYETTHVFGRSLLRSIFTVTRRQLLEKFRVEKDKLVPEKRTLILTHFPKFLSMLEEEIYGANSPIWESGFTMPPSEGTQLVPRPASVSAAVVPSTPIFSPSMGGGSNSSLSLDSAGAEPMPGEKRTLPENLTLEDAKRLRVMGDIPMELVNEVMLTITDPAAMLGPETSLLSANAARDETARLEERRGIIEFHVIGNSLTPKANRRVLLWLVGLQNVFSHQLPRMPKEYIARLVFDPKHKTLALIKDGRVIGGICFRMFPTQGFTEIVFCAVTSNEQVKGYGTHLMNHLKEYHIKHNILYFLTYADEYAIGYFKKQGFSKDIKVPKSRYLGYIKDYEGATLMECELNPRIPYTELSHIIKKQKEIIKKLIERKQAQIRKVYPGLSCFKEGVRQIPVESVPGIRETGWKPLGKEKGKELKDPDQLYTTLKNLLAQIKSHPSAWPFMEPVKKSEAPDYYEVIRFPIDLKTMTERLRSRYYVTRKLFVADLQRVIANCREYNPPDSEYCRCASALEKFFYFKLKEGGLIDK"}, "source": "PubChem BioAssay AID504327", "about": "(National Center for Advancing Translational Sciences (NCATS), 2011)", "note": "Several values for one entry are separate records, joined by “and”; a condition that tells them apart may be missing. Equal entries are not always repeated. Among all 390,000 compounds or so, about 820 (0.21%) were called active. The shares of active, inactive and inconclusive entries below differ from those in the screen. The call rests on the fitted dose curve; in most records, active means well fitted inhibition curve with a large enough effect; inconclusive means small, poorly fitted or top-dose-only effect, or another doubt; inactive means no such curve, though single readings can be large or run the other way. Potencies beside an inconclusive call are fits to weak or partial responses and may not hold up. On the % scale 0 is the no-effect control and ±100 the full control effect; potency means the concentration at half of the fitted maximal effect.", "data": [{"target": "Histone acetyltransferase KAT2A (Homo sapiens) (UniProt Q92830)", "assay": "qHTS Assay for Inhibitors of GCN5L2", "details": "GCN5L2 HAT assay, ThioGlo1 CoA-SH fluorescence; activity change, negative = inhibition: at 58.9 µM (top of the series) unless noted", "in_short": "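Free CoA generated was detected with ThioGlo1 (50uM) fluorescence at Ex340nm/Em540nm, read immediately and after 20 min at room temperature. Enzyme, 20 nM in HEPES pH 7.5 buffer, saw compounds 15 min before adding 75uM H3(1-25) peptide and 70uM acetyl-CoA.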", "values": [{"smiles": "Cc1cccc(NC(=O)C(c2cccc([N+](=O)[O-])c2)N2CCCCC2)c1", "note": "(centres undefined)", "Potency": "inconclusive: 1 µM [inhibitor, single point]"}, {"smiles": "Cc1cccc(NC(=O)CCN2CC(C)CC(C)C2)c1", "note": "(centres undefined)", "Potency": "inconclusive: 7.08 µM [inhibitor, partial curve]"}, {"smiles": "COc1ccc(OC)c(CCNC(=O)Cn2sc3nc(C)cc(C)c3c2=O)c1", "Potency": "inconclusive: 20 µM [inhibitor, partial curve]"}, {"smiles": "C=CCn1c(O)c(C=Nc2ccccc2)sc1=S", "Potency": "inconclusive: 39.8 µM [inhibitor, single point]"}, {"smiles": "COc1cccc(C(c2sc3nc(C)nn3c2O)N2CCN(C(=O)c3ccco3)CC2)c1", "note": "(centres undefined)", "Potency": "inconclusive: 35.5 µM [inhibitor, single point]"}, {"smiles": "Cc1ccc(-c2cc(-c3ccc(C)o3)nc(N)c2C#N)cc1", "Potency": "inconclusive: 39.8 µM [inhibitor, single point]"}, {"smiles": "O=C(Nc1ccc(Oc2cccc(C(F)(F)F)c2)nc1)c1cccs1", "activity change, negative = inhibition": "inactive: -8.53%"}, {"smiles": "O=C(O)CN1C(=O)/C(=C\\c2cc(Br)ccc2OCc2ccccc2F)SC1=S", "Potency": "inconclusive: 39.8 µM [inhibitor, single point]"}, {"smiles": "COC(=O)c1ccc(CNCC(O)COc2ccc(-c3ccccc3)cc2)cc1", "note": "(centres undefined)", "activity change, negative = inhibition": "inactive: -2.47%"}, {"smiles": "CCOc1ccc(C(=O)NCCCCNC(=O)c2ccc(OCC)cc2)cc1", "Potency": "active: 35.5 µM"}, {"smiles": "Cc1nc2nc(-c3cccs3)cn2nc1C", "Potency": "inconclusive: 25.1 µM [inhibitor, partial curve]"}, {"smiles": "COc1ccc(CCNC(=O)Cc2ccc(C)cc2)cc1OC", "Potency": "inconclusive: 12.6 µM [inhibitor, partial curve]"}, {"smiles": "CCCCN(C)CCN1C(=O)C2C(C(=O)Nc3ccc(C)cc3)C3C=CC2(O3)C1C(=O)NC1CCCCC1", "note": "(centres undefined)", "Potency": "inconclusive: 35.5 µM [inhibitor, single point]"}, {"smiles": "CCC(=O)NC(c1cccc([N+](=O)[O-])c1)c1c(O)ccc2ccccc12", "note": "(centres undefined)", "activity change, negative = inhibition": "inactive: -18%"}, {"smiles": "CCOC(=O)c1cc2c(=O)n3ccccc3nc2n(Cc2ccco2)c1=NC(=O)c1ccccc1OC", "Potency": "inactive"}, {"smiles": "O=C(O)c1ccccc1NS(=O)(=O)c1ccc(NN=Cc2ccc(F)cc2)c([N+](=O)[O-])c1", "Potency": "inconclusive: 39.8 µM [inhibitor, single point]"}, {"smiles": "C[C@H](NC(=O)c1cc2cc(Cl)ccc2n1C)C(=O)N1CCC[C@H]1C(=O)O", "Potency": "inconclusive: 39.8 µM [inhibitor, single point]"}, {"smiles": "CN1CCN(c2ncc3ncc(=O)n(C4CC4)c3n2)CC1", "Potency": "inconclusive: 39.8 µM [inhibitor, single point]"}, {"smiles": "COCCCNc1oc(/C=C/c2ccccc2)nc1C#N", "Potency": "inconclusive: 20 µM [inhibitor, partial curve]"}, {"smiles": "Cc1ccc(-n2c(SCC(=O)NCc3ccco3)nnc2-c2cccnc2)cc1", "activity change, negative = inhibition": "inactive: 0.541%"}, {"smiles": "Clc1c(CSc2nc3ccccc3o2)nc2ccccn12", "Potency": "inconclusive: 4.47 µM [inhibitor, single point]"}, {"smiles": "Cc1ccc(C(=O)C2(C)C3c4cc(Br)ccc4OC(=O)C32C(=O)c2ccco2)cc1", "note": "(centres undefined)", "activity change, negative = inhibition": "inactive: -16.7%"}, {"smiles": "COc1ccccc1CN1CCNC(=O)C1CC(=O)NCCC1=CCCCC1", "note": "(centres undefined)", "Potency": "inconclusive: 7.08 µM [inhibitor, single point]"}, {"smiles": "COc1cc2c(cc1NC(=O)CSc1nnnn1-c1ccccc1)oc1ccccc12", "Potency": "inconclusive: 31.6 µM [inhibitor, partial curve]"}, {"smiles": "COc1cccc(CN(C)CC(=O)NCc2ccc(F)cc2)c1OC", "Potency": "inconclusive: 0.708 µM [inhibitor, single point]"}, {"smiles": "CCc1ccccc1NC(=O)/C(=C/c1ccco1)c1ccccc1", "activity change, negative = inhibition": "inconclusive: -31.2% [inhibitor]"}, {"smiles": "COc1ccc(C2=NN3C(C2)c2ccccc2OC3c2cccs2)cc1", "note": "(centres undefined)", "Potency": "inconclusive: 39.8 µM [inhibitor, single point]"}, {"smiles": "CCCNC(=O)/C=C/C(=O)O", "activity change, negative = inhibition": "inactive: -3.03%"}, {"smiles": "Cn1cc(S(=O)(=O)CC(=O)N2CCc3ccccc32)c2ccccc21", "activity change, negative = inhibition": "inactive: -8.85%"}, {"smiles": "CCn1c(N2CCN(C(=O)Nc3ccc(F)cc3)CC2)nc2ccccc21", "Potency": "inconclusive: 3.98 µM [inhibitor, single point]"}, {"smiles": "Cc1ccc(-n2c(-c3ccc(Cl)cc3)c[n+]3c2CCC3)cc1", "activity change, negative = inhibition": "inactive: -4.9%"}, {"smiles": "Cn1cccc1/C=N/NC(=O)c1sc2ccccc2c1Cl", "Potency": "inconclusive: 28.2 µM [inhibitor, single point]"}, {"smiles": "Cc1c(N(C)C(=O)C2CCCN2S(=O)(=O)c2ccccc2)c(=O)n(-c2ccccc2)n1C", "note": "(centres undefined)", "Potency": "inconclusive: 8.91 µM [inhibitor, single point]"}, {"smiles": "CCOC(=O)C1(CC)NC(c2ccc(OC)c(OC)c2)C2C(=O)N(c3cccc(C(C)=O)c3)C(=O)C21", "note": "(centres undefined)", "Potency": "inconclusive: 7.08 µM [inhibitor, single point]"}, {"smiles": "CCOC(=O)N1CCN(CCC(=O)Nc2cccc(Cl)c2C)CC1", "Potency": "inconclusive: 39.8 µM [inhibitor, single point]"}, {"smiles": "Cc1ccc(N2C(=O)CS(=O)(=O)C23C(=O)N(Cc2ccccc2F)c2ccccc23)cc1Cl", "note": "(centres undefined)", "activity change, negative = inhibition": "inactive: -4.95%"}, {"smiles": "O=C(CNC(=O)c1ccncc1)N/N=C/c1ccc(Br)cc1", "activity change, negative = inhibition": "inactive: -3.29%"}, {"smiles": "CC(O)CN(Cc1ccc(Cl)cc1)CC(C)O", "note": "(centres undefined)", "Potency": "inconclusive: 0.794 µM [inhibitor, partial curve, poor fit]"}, {"smiles": "CCOC(=O)Cc1cc(-c2ccc(OC)cc2)nc2ccc3ccccc3c12", "activity change, negative = inhibition": "inactive: -3.41%"}, {"smiles": "Cc1sc2c3ccsc3ccc2[n+]1C", "Potency": "inconclusive: 22.4 µM [inhibitor, single point]"}, {"smiles": "Cc1ccc(CSCCNC(=O)c2ccc(Cl)c(S(=O)(=O)N3CCOCC3)c2)cc1", "activity change, negative = inhibition": "inactive: -4.84%"}, {"smiles": "Cc1sccc1/C=N/NC(=O)c1cccc2ccccc12", "activity change, negative = inhibition": "inactive: -6.71%"}, {"smiles": "O=C1C(=O)N(C2CCS(=O)(=O)C2)C(c2cccc(O)c2)/C1=C(/O)c1ccc(Cl)cc1", "note": "(centres undefined)", "activity change, negative = inhibition": "inactive: -6.42%"}, {"smiles": "O=C(O)CCc1nn2c3ccccc3nc2n(CCN2CCCCC2)c1=O", "Potency": "inconclusive: 28.2 µM [inhibitor, single point]"}, {"smiles": "CC(Cc1cccs1)NC(=O)Nc1ccc(F)cc1", "note": "(centres undefined)", "activity change, negative = inhibition": "inactive: -7.24%"}, {"smiles": "CCc1nc(Nc2ccc(O)cc2)c2oc3ccccc3c2n1", "activity change, negative = inhibition": "inactive: -4.07%"}, {"smiles": "COc1ccc(C)cc1S(=O)(=O)Nc1cccc(-c2ccc(N3CCC(C)CC3)nn2)c1", "Potency": "inconclusive: 0.891 µM [inhibitor, partial curve, poor fit]"}, {"smiles": "O=C1CCN(C(=O)Nc2ccccc2Cl)N1", "Potency": "inconclusive: 7.94 µM [inhibitor, partial curve]"}, {"smiles": "CN1CCN(c2ncc3nc(-c4cccs4)c(=O)n(CCC#N)c3n2)CC1", "Potency": "inconclusive: 5.62 µM [inhibitor, full curve]"}, {"smiles": "COc1ccc(N2CCN(C3CCCN(C(=O)c4cccc(C)n4)C3)CC2)cc1", "note": "(centres undefined)", "Potency": "inconclusive: 15.8 µM [inhibitor, partial curve, poor fit]"}, {"smiles": "COc1ccc(C2=NN(c3nc(C(=O)O)cs3)C(O)(C(F)(F)F)C2)c(OC)c1", "note": "(centres undefined)", "Potency": "inconclusive: 0.1 µM [inhibitor, full curve, poor fit]"}, {"smiles": "OCCCNc1ncnc2oc(-c3ccccc3)c(-c3ccccc3)c12", "Potency": "inconclusive: 3.55 µM [inhibitor, partial curve, poor fit]"}, {"smiles": "COC(=O)Cc1c(C)c2cc3c(c(C)c2oc1=O)OCN(CCc1ccc(F)cc1)C3", "Potency": "active: 28.2 µM"}, {"smiles": "O=C(Cc1cccs1)Nc1ccc(S(=O)(=O)N2CCCCC2)cc1", "Potency": "inconclusive: 35.5 µM [inhibitor, single point]"}, {"smiles": "CCc1c(C)c2ccc(O)c(CN(C)C)c2oc1=O", "Potency": "inconclusive: 28.2 µM [inhibitor, single point]"}, {"smiles": "CCCCn1c(=O)[nH]c2nc3cc(NC(C)=O)ccc3nc2c1=O", "activity change, negative = inhibition": "inactive: -20.6%"}, {"smiles": "O=c1c(-c2cccs2)nc2cncnc2n1C1CC1", "Potency": "inconclusive: 22.4 µM [inhibitor, single point]"}, {"smiles": "Cc1cccc(NC(=O)CSc2cn(CC(=O)N3CCCC3)c3ccccc23)c1C", "activity change, negative = inhibition": "inactive: -5.02%"}, {"smiles": "COc1ccc(S(=O)(=O)Nc2c(F)cccc2F)cc1", "Potency": "inconclusive: 7.08 µM [inhibitor, single point]"}, {"smiles": "O=C(O)CCn1cc(C2CC(c3ccccc3)=NN2c2ccccc2)c(-c2ccccc2)n1", "note": "(centres undefined)", "Potency": "inconclusive: 39.8 µM [inhibitor, single point]"}, {"smiles": "CCNc1ncc2nc(-c3ccccc3)c(=O)n(Cc3ccc(F)cc3)c2n1", "Potency": "inconclusive: 35.5 µM [inhibitor, partial curve]"}, {"smiles": "CN(C)CCCc1cc(C(=O)Nc2ccc(-c3ccncc3)cc2)ccc1O", "Potency": "inconclusive: 39.8 µM [inhibitor, single point] and inconclusive: 22.4 µM [inhibitor, single point]"}, {"smiles": "O=C1Nc2cc(Cl)c(Cl)cc2N(O)N1c1ccc(Cl)cc1", "Potency": "inconclusive: 0.501 µM [inhibitor, single point]"}, {"smiles": "COC(=O)CC1=NN(c2ccc(OC)cc2)C(=O)/C1=C\\c1ccc(Cl)cc1", "activity change, negative = inhibition": "inactive: -22.6%"}, {"smiles": "Cc1ccsc1C(=O)N(C)CC(=O)Nc1ccccc1Br", "Potency": "inconclusive: 4.47 µM [inhibitor, single point]"}, {"smiles": "CCCCn1c(N)c(N(CCC(C)C)C(=O)c2cccc(-n3cnnn3)c2)c(=O)[nH]c1=O", "Potency": "inconclusive: 1.58 µM [inhibitor, partial curve]"}, {"smiles": "COc1cccc(-n2cc(CN(C)Cc3nc(Cc4cccc(F)c4)no3)cn2)c1", "Potency": "inconclusive: 22.4 µM [inhibitor, partial curve]"}, {"smiles": "CCN(CC)Cc1c(O)c(Cl)cc2c(C)c(C)c(=O)oc12", "Potency": "inconclusive: 3.55 µM [inhibitor, partial curve]"}, {"smiles": "O=C(N/C(=C/c1ccc(Cl)cc1)c1nc2ccccc2[nH]1)c1ccco1", "Potency": "inconclusive: 0.501 µM [inhibitor, single point]"}]}]}
